No constants are given. Whether binding was seen depends on the method and setting. For part of these data: In cells and extracts the contact can be indirect. Some entries that bind do so weakly or less than the wild type. Where a sequence is shown, tags or fusion partners need not be part of it.
Tests used:
[1] = target: T1, SEMA4B protein on the cell surface (SEMA4B/H358, NCI-H358, NCI-H2228 cells) (human) (UniProt Q9NPR2); test: flow cytometry (FACScan) on NCI-H358 and SEMA4B/H358 cells, Alexa488 anti-human IgG
T1 sequence: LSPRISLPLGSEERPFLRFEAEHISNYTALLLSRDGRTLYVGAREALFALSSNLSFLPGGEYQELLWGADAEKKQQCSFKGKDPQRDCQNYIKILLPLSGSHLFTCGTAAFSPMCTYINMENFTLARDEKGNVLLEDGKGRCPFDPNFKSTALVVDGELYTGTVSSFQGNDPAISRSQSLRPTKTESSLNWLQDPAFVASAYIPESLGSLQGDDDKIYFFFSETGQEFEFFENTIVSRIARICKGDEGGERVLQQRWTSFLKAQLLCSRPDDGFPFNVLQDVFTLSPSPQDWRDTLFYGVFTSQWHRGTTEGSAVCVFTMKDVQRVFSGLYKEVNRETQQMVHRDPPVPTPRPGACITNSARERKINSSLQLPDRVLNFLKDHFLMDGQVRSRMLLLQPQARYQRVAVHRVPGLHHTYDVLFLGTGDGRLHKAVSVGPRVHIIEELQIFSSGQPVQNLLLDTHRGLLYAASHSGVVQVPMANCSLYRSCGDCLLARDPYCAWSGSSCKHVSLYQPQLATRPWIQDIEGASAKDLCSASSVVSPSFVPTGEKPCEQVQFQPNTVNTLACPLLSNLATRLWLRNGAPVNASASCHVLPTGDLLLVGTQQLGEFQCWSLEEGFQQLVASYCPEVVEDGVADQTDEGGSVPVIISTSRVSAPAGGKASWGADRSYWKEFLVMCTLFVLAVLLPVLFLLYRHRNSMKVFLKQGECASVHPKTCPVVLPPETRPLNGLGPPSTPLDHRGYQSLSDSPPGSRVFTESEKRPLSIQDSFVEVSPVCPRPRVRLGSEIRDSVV

[2] = target: T2, SEMA4B protein tagged with 3xFLAG at the C terminus (human) (UniProt Q9NPR2); test: co-precipitation with Protein G-Sepharose from extract of NCI-H358 expressing SEMA4B-3xFLAG; western with AS-2591 or anti-FLAG M2
T2 sequence: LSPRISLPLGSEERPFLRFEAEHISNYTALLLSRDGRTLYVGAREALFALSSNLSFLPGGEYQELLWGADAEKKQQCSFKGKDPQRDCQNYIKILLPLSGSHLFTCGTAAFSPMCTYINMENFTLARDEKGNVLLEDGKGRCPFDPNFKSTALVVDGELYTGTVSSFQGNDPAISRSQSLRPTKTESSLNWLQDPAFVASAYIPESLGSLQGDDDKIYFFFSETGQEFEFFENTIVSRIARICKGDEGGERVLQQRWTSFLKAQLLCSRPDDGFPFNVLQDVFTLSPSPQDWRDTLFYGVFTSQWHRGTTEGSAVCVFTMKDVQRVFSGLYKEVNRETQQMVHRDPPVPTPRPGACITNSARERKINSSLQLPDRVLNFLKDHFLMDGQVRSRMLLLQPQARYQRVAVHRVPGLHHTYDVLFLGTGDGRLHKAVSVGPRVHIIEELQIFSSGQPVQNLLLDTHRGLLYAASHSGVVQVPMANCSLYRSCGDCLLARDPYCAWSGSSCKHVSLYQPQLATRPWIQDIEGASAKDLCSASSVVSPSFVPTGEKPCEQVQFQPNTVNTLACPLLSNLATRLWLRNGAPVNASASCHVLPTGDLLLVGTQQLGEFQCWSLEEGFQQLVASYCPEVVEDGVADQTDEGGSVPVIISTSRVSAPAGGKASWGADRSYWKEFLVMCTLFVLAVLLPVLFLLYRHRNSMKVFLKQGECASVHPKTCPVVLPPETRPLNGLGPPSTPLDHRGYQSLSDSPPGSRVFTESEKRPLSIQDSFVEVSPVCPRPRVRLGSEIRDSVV

[3] = target: T2, SEMA4B protein tagged with 3xFLAG at the C terminus (human); test: co-precipitation with Protein G-Sepharose; western blot

Measured: binding

B1: recombinant Plexin B1/Fc fused protein (extracellular domain of Plexin B1 with the human Fc domain at the C terminus) (Fc fusion, not shown: a dimerising Fc or GST)
chain: LQPLPPTAFTPNGTYLQHLARDPTSGTLYLGATNFLFQLSPGLQLEATVSTGPVLDSRDCLPPVMPDECPQAQPTNNPNQLLLVSPGALVVCGSVHQGVCEQRRLGQLEQLLLRPERPGDTQYVAANDPAVSTVGLVAQGLAGEPLLFVGRGYTSRGVGGGIPPITTRALWPPDPQAAFSYEETAKLAVGRLSEYSHHFVSAFARGASAYFLFLRRDLQAQSRAFRAYVSRVCLRDQHYYSYVELPLACEGGRYGLIQAAAVATSREVAHGEVLFAAFSSAAPPTVGRPPSAAAGASGASALCAFPLDEVDRLANRTRDACYTREGRAEDGTEVAYIEYDVNSDCAQLPVDTLDAYPCGSDHTPSPMASRVPLEATPILEWPGIQLTAVAVTMEDGHTIAFLGDSQGQLHRVYLGPGSDGHPYSTQSIQQGSAVSRDLTFDGTFEHLYVMTQSTLLKVPVASCAQHLDCASCLAHRDPYCGWCVLLGRCSRRSECSRGQGPEQWLWSFQPELGCLQVAAMSPANISREETREVFLSVPDLPPLWPGESYSCHFGEHQSPALLTGSGVMCPSPDPSEAPVLPRGADYVSVSVELRFGAVVIAKTSLSFYDCVAVTELRPSAQCQACVSSRWGCNWCVWQHLCTHKASCDAGPMVASHQSPLVSPDPPARGGPSPSPPTAPKALATPAPDTLPVEPGAPSTATASDISPGASPSLLSPWGPWAGSGSISSPGSTGSPLHEEPSPPSPQNGPGTAVPAPTDFRPSATPEDLLASPLSPSEVAAVPPADPGPEALHPTVPLDLPPATVPATTFPGAMGSVKPALDWLTREGGELPEADEWTGGDAPAFSTSTLLSGDGDSAELEGPPAPLILPSSLDYQYDTPGLWELEEATLGASSCPCVESVQGSTLMPVHVEREIRLLGRNLHLFQDGPGDNECVMELEGLEVVVEARVECEPPPDTQCHVTCQQHQLSYEALQPELRVGLFLRRAGRLRVDSAEGLHVVLYDCSVGHGDCSRCQTAMPQYGCVWCEGERPRCVTREACGEAEAVATQCPAPLIHSVEPLTGPVDGGTRVTIRGSNLGQHVQDVLGMVTVAGVPCAVDAQEYEVSSSLVCITGASGEEVAGATAVEVPGRGRGVSEHDFAYQDPKVHSIFPARGPRAGGTRLTLNGSKLLTGRLEDIRVVVGDQPCHLLPEQQSEQLRCETSPRPTPATLPVAVWFGATERRLQRGQFKYTLDPNITSAGPTKSFLSGGREICVRGQNLDVVQTPRIRVTVVSRMLQPSQGLGRRRRVVPETACSLGPSCSSQQFEEPCHVNSSQLITCRTPALPGLPEDPWVRVEFILDNLVFDFATLNPTPFSYEADPTLQPLNPEDPTMPFRHKPGSVFSVEGENLDLAMSKEEVVAMIGDGPCVVKTLTRHHLYCEPPVEQPLPRHHALREAPDSLPEFTVQMGNLRFSLGHVQYDGES
binds: [1] | [2] | [3]

Source: US20070275888A1
